Measured values as given in PubChem BioAssay AID540276 (National Center for Advancing Translational Sciences (NCATS), 2011).
Out of some 300,000 compounds screened, about 5,400 (1.8%) were called active. The shares of active, inactive and inconclusive entries below differ from those in the screen. Calls come from the whole dose curve; tested in HEK293 cells. A potency beside an inconclusive call is a rough fit, not a confirmed value.

test: qHTS for inhibitors of binding or entry into cells for Marburg Virus; settings: Marburg virus pseudotyped entry inhibition, cell reporter; series mostly up to 37.8 µM
Potency is the fitted concentration of half-maximal effect.

| SMILES | Potency |
| --- | --- |
| CC(=O)Nc1c(C(=O)N2CCN(c3ccccn3)CC2)cnn1-c1ccc(C)cc1 | inconclusive: 0.447 µM [inhibitor, partial curve, poor fit] |
| CCOc1ccc(-n2cc(C(=O)NCc3ccco3)c3cc(OC)c(OC)cc3c2=O)cc1 | inconclusive: 14.1 µM [inhibitor, partial curve, poor fit] |
| CC(C)(Oc1ccc(Cl)cc1)C(=O)Nc1nc2ccc(S(C)(=O)=O)cc2s1 | inactive |
| CSc1cc(-c2ccccc2)n(C)c(=O)c1C#N | inactive |
| CN1CCC(=NNC(=O)C(=O)NC2CCCC2)CC1 | inconclusive: 0.316 µM [inhibitor, partial curve, poor fit] |
| CCCCCCCc1cc2ccc(F)cc2c2c(C(=O)OC)c(C(=O)OC)c(C(=O)OC)n12 | inactive |
| CCC(C)(C)C1CCc2[nH]nc(C(=O)N/N=C(\C)c3ccco3)c2C1 (configuration not stated) | inconclusive: 35.5 µM [inhibitor, single point] |
| CCOCCCNC(=O)C(c1ccc(Cl)cc1)N(Cc1cccs1)C(=O)c1ccc(NC(C)=O)cc1 (configuration not stated) | active: 10 µM |
| O=C(NC1CCSC1)c1cccc(Cl)c1 (configuration not stated) | inconclusive: 1 µM [activator, full curve, poor fit] |
| Cc1cc(C)n(-c2nc(NCCN(C)C)c3c4c(sc3n2)COC(C)(C)C4)n1 | active: 7.08 µM |
| Cc1cc(=O)n(CCc2ccccc2)c(O)c1C#N | inconclusive: 35.5 µM [inhibitor, single point] |
| CCC(=O)C1CCCN(C(=O)c2ccc(OC3CCN(C(=O)CCOC)CC3)cc2)C1 (configuration not stated) | inactive |
| CCOC(=O)c1csc(NC(=O)CSc2nnnn2CC)n1 | inactive |
| O=C(NCc1ccco1)C1OCCc2ccccc21 (configuration not stated) | inconclusive: 5.62 µM [activator, single point] |
| COC(=O)c1sccc1Oc1c(Cl)cccc1[N+](=O)[O-] | inconclusive: 5.62 µM [activator, single point] |
| CCOc1cc(/C=N/Nc2nc(-c3cccs3)c(NC(C)=O)s2)ccc1O | inconclusive: 3.98 µM [inhibitor, partial curve, poor fit] |
| CC1=C(C)CS(=O)N(S(=O)(=O)c2ccc(Cl)cc2)C1 (configuration not stated) | inconclusive: 35.5 µM [inhibitor, single point] |
| C=CCOc1ccccc1CNc1cccc(F)c1 | inactive |
| O=C(NCc1ccco1)/C(=C/c1ccc(C(F)(F)F)cc1)c1nc2ccccc2[nH]1 | inactive |
| COc1ccc(NC(=O)CSc2n[nH]c(-c3ccccn3)n2)cc1 | inconclusive: 22.4 µM [inhibitor, single point] |
| CCc1ccc(CN2CCC(Oc3ccc(C(=O)NCc4ccccn4)cc3)CC2)o1 | inconclusive: 12.6 µM [inhibitor, single point] |
| COc1cc(C2c3cc4c(cc3C(O)C3COCC23)OCO4)cc(OC)c1OC (configuration not stated) | inconclusive: 2.51 µM [inhibitor, full curve, poor fit] |
| O=C(C1CCCN(c2ncnc3c2nc2n3CCCCC2)C1)N1CCN(c2ccc(Cl)cc2)CC1 (configuration not stated) | inconclusive: 10 µM [inhibitor, partial curve, poor fit] |

| SMILES | Potency |
| --- | --- |
| Cc1csc(NC(=O)C2=NN(c3ccccc3)C(=O)CC2)n1 | inactive |
| O=C(CC1SC(=Nc2ccccc2)N(Cc2ccccn2)C1=O)Nc1cccc(Cl)c1 (configuration not stated) | inconclusive: 25.9 µM [inhibitor, single point] |
| Cc1ccc(NC(=O)c2c(C)oc3ccc(O)c(CN4CCCCC4)c23)c(C)c1 | inconclusive: 15.8 µM [inhibitor, single point] |
| COc1ccc(C)cc1NC(=O)C(c1ccccc1)N1CCN(CC(=O)N2CCCC2)CC1 (configuration not stated) | inconclusive: 1.41 µM [inhibitor, partial curve, poor fit] |
| O=C(Nc1nc(-c2cc(Cl)sc2Cl)cs1)c1ccc(Br)s1 | inconclusive: 25.9 µM [inhibitor, partial curve, poor fit] |
| O=C(c1ccc2c(c1)OCO2)N1CCN(c2ccccc2F)CC1 | inconclusive: 11.2 µM [activator, partial curve, poor fit] |
| Cc1ccc(/C=N/n2cnc3sc4c(c3c2=O)CCCC4)o1 | inconclusive: 29.1 µM [activator, single point] |
| COC(=O)NC(CCc1ccccc1)C(C(C)=O)C(=O)OC (configuration not stated) | inactive |
| COC(=O)CC=C[C@@H](C)[C@H](NC(=O)OCC(Cl)(Cl)Cl)c1cccc(OC)c1 | inactive |
| C/C(=N\NC(=O)NC1CCCCC1)c1ccco1 | inconclusive: 1.26 µM [inhibitor, single point] |
| COc1cc(C(=O)N/N=C/C2CC=CCC2)cc(OC)c1OC (configuration not stated) | inconclusive: 35.5 µM [inhibitor, single point] |
| COc1cc(CC(C#N)(CO)c2nc3ccccc3[nH]2)ccc1OC(F)F (configuration not stated) | inconclusive: 11.2 µM [inhibitor, single point] |
| Cc1ccccc1-n1c(-c2ccco2)nc2ccccc2c1=O | inconclusive: 31.6 µM [inhibitor, partial curve, poor fit] |
| CCOC(=O)C1=NN(C(C)=O)C2(CC(=O)N(c3cc(C)cc(C)c3)C2=O)C1 (configuration not stated) | inconclusive: 1.26 µM [activator, partial curve, poor fit] |
| O=C(O)CCCCCC[C@@H]1C(=O)NC(=O)N1CC[C@@H](O)C1CCCCC1 | inactive |
| Cc1ccc(NC(=O)c2nc(S(C)(=O)=O)ncc2N(Cc2ccco2)Cc2ccco2)cc1C | inconclusive: 17.8 µM [inhibitor, partial curve, poor fit] |
| COC(=O)[C@@]1(C#N)[C@@H]2C=CC(C(C)=O)=CN2[C@@H](C(N)=O)[C@@H]1c1ccc(F)cc1 | inconclusive: 8.91 µM [inhibitor, partial curve, poor fit] |
| Nc1cc(S(=O)(=O)N2CCCCC2)ccc1Oc1ccccc1 | inconclusive: 2.31 µM [inhibitor, partial curve, poor fit] |
| O=C(C1CC1)N1CCc2cc(Br)cc(S(=O)(=O)NCc3ccco3)c21 | inconclusive: 2.06 µM [inhibitor, partial curve, poor fit] |
| CCOc1ccc(N/C=C/C(=O)c2ccc(C)cc2)c([N+](=O)[O-])c1 | inconclusive: 0.501 µM [activator, full curve, poor fit] |
| O=C1c2ccccc2C(=O)c2c1oc(C(F)(F)F)c2C(=O)c1ccccc1 | inconclusive: 12.6 µM [inhibitor, partial curve, poor fit] |
| CCc1cccc(C)c1NC(=S)NCc1ccc2[nH]c(C)cc2c1 | inactive |
| CC1CC(=O)NN1C(=O)c1ccccc1 (configuration not stated) | inactive |

| SMILES | Potency |
| --- | --- |
| O=C(CN1C(=O)c2cccc3cccc1c23)NCc1ccncc1 | inconclusive: 1.3 µM [inhibitor, single point] |
| O=C(c1cccnc1)N1CCN(Cc2ccc3c(c2)OCO3)CC1 | inactive |
| COc1ccccc1NC(=O)C1=C(C)NC(=O)NC1c1ccccc1[N+](=O)[O-] (configuration not stated) | inactive |
| CCc1ccccc1NC(=O)CCS(=O)(=O)c1cccc2nonc12 | inconclusive: 35.5 µM [activator, single point] |
| CN(C)c1nc(/C=C(\C#N)C(N)=O)c(Cl)n1-c1ccc(F)cc1 | inconclusive: 11.2 µM [inhibitor, partial curve, poor fit] |
| COc1ccc(C(CCNCc2ccc(N(C)C)cc2)c2ccccc2)cc1 (configuration not stated) | inconclusive: 11.2 µM [inhibitor, partial curve, poor fit] |
| Cc1ccc(NC(=O)COC(=O)CNC(=O)c2ccco2)cc1 | inactive |
| COc1cnc(N(C)C)nc1Sc1cccc(Cl)c1 | inconclusive: 35.5 µM [inhibitor, single point] |
| CC[n+]1c(/C=C/Nc2ccccc2)sc2ccccc21 | inconclusive: 35.5 µM [inhibitor, single point] |
| Cc1cc(N2CCN(C)CC2)nc2ccc(NC(=O)c3ccc(Br)o3)cc12 | inactive |
| O=C(Nc1ccc(N2CCOCC2)c(Cl)c1)c1ccccc1Cl | inconclusive: 7.08 µM [activator, partial curve, poor fit] |
| O=C(Nc1ccc(F)cc1F)c1cc(-c2ccco2)on1 | inactive |
| O=C1CCCC2=C1C(c1ccccc1O)C1=C(CCCC1=O)O2 | inconclusive: 1.26 µM [inhibitor, single point] |
| COc1ccccc1C(=O)Nc1ccnn1C1CCN(Cc2cc(C)c(C)cc2C)CC1 | inconclusive: 12.6 µM [inhibitor, partial curve, poor fit] |
| CC(C)(C(O)c1ccc([N+](=O)[O-])cc1)[N+](=O)[O-] (configuration not stated) | inconclusive: 0.75 µM [inhibitor, single point] |
| O=C(NCc1ccco1)C1CCN(c2nc3ccccc3n2Cc2ccccc2F)CC1 | inactive |
| CC(C)NC(=S)N1CCN(c2ncccn2)CC1 | inconclusive: 14.1 µM [inhibitor, single point] |
| N#C/C(=C\c1ccc[nH]1)C(=O)c1ccccc1 | inconclusive: 12.6 µM [activator, partial curve] |
| COc1ccc(N(CC(=O)N2CCN(c3ccccc3F)CC2)S(=O)(=O)c2c(C)n[nH]c2C)cc1 | inconclusive: 35.5 µM [inhibitor, partial curve, poor fit] |
| O=C(NC1CCCCC1)c1ccc2c(c1)N(Cc1ccc(Cl)cc1)C(=O)c1ccccc1S2=O (configuration not stated) | inconclusive: 8.91 µM [inhibitor, partial curve, poor fit] |
| O=C(c1ccc(F)cc1)n1nc(-c2ccccc2)nc1NCc1ccco1 | inconclusive: 6.31 µM [activator, full curve, poor fit] |

As entered above.
CCc1ccc(CN2CCC(Oc3ccc(C(=O)NCc4ccccn4)cc3)CC2)o1 – Potency: inconclusive: 12.6 µM [inhibitor, single point]
O=C(c1ccc2c(c1)OCO2)N1CCN(c2ccccc2F)CC1 – Potency: inconclusive: 11.2 µM [activator, partial curve, poor fit]
COc1ccc(N(CC(=O)N2CCN(c3ccccc3F)CC2)S(=O)(=O)c2c(C)n[nH]c2C)cc1 – Potency: inconclusive: 35.5 µM [inhibitor, partial curve, poor fit]
Cc1csc(NC(=O)C2=NN(c3ccccc3)C(=O)CC2)n1 – Potency: inactive
